In assay [1] the target is T1, NCAPH2, the kleisin subunit of condensin II (human (endogenous in HEK-293T)) (UniProt Q6IBW4).
T1 sequence: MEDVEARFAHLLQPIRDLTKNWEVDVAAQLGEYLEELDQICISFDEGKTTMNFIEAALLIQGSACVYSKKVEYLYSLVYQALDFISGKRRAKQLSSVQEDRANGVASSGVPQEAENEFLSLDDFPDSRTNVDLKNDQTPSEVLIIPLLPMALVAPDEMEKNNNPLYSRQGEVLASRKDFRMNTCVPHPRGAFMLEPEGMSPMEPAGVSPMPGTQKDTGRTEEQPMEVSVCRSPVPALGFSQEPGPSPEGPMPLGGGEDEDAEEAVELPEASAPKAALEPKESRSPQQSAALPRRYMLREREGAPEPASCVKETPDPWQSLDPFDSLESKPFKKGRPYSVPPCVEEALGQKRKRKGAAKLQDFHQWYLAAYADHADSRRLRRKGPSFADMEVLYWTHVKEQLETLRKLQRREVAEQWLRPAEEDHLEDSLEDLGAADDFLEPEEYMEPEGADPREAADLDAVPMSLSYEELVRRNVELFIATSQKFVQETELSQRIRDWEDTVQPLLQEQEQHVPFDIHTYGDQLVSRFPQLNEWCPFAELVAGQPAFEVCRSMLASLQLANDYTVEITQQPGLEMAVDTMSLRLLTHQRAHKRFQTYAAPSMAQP
In words: affinity purification with mass spectrometry; immunoprecipitation with B276 versus rabbit IG from nuclear lysate of non-crosslinked HEK 293T cells; Benzonase, washes with 150mM NaCl; SAINTexpress; performed once.

The chains behind the UniProt entries cited, without tags or fusion partners.
UniProt O96019: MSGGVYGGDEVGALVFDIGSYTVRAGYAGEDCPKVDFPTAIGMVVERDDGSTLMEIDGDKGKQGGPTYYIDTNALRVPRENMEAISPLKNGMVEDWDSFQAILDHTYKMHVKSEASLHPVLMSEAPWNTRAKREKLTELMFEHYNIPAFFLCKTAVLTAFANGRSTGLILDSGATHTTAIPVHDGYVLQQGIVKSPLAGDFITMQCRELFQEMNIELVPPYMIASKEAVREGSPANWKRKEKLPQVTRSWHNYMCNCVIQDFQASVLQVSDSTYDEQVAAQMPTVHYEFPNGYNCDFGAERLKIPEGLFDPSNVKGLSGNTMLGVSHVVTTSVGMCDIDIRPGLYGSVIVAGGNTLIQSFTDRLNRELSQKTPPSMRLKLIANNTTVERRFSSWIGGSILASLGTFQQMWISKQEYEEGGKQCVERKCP
UniProt Q9NPI1: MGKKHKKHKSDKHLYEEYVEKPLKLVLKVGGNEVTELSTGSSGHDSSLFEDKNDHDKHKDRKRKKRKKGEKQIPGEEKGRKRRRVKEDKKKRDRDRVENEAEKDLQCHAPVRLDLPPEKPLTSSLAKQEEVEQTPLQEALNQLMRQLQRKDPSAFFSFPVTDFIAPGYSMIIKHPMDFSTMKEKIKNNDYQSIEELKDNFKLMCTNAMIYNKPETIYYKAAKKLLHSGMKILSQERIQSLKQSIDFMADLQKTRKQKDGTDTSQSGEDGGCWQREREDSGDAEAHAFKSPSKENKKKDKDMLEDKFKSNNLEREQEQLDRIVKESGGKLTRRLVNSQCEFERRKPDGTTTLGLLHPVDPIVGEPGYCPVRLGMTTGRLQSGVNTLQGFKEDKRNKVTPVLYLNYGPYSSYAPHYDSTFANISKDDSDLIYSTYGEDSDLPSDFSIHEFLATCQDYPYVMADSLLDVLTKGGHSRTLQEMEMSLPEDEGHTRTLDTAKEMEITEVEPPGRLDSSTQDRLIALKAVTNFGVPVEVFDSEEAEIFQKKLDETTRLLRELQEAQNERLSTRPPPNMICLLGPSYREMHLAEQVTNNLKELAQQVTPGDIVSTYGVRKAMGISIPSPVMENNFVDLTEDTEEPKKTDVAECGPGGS
UniProt Q92785: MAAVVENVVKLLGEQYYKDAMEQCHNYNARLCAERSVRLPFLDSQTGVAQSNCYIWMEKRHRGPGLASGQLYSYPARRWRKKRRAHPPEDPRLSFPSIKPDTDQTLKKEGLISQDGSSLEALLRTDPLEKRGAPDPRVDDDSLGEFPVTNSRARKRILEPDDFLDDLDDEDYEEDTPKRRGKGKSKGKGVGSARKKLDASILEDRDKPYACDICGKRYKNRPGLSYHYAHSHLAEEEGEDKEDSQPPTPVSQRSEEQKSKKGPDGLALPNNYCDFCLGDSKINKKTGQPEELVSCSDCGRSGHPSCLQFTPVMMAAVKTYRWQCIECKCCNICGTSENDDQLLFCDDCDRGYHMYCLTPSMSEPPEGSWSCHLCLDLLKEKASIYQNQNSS
UniProt P51531: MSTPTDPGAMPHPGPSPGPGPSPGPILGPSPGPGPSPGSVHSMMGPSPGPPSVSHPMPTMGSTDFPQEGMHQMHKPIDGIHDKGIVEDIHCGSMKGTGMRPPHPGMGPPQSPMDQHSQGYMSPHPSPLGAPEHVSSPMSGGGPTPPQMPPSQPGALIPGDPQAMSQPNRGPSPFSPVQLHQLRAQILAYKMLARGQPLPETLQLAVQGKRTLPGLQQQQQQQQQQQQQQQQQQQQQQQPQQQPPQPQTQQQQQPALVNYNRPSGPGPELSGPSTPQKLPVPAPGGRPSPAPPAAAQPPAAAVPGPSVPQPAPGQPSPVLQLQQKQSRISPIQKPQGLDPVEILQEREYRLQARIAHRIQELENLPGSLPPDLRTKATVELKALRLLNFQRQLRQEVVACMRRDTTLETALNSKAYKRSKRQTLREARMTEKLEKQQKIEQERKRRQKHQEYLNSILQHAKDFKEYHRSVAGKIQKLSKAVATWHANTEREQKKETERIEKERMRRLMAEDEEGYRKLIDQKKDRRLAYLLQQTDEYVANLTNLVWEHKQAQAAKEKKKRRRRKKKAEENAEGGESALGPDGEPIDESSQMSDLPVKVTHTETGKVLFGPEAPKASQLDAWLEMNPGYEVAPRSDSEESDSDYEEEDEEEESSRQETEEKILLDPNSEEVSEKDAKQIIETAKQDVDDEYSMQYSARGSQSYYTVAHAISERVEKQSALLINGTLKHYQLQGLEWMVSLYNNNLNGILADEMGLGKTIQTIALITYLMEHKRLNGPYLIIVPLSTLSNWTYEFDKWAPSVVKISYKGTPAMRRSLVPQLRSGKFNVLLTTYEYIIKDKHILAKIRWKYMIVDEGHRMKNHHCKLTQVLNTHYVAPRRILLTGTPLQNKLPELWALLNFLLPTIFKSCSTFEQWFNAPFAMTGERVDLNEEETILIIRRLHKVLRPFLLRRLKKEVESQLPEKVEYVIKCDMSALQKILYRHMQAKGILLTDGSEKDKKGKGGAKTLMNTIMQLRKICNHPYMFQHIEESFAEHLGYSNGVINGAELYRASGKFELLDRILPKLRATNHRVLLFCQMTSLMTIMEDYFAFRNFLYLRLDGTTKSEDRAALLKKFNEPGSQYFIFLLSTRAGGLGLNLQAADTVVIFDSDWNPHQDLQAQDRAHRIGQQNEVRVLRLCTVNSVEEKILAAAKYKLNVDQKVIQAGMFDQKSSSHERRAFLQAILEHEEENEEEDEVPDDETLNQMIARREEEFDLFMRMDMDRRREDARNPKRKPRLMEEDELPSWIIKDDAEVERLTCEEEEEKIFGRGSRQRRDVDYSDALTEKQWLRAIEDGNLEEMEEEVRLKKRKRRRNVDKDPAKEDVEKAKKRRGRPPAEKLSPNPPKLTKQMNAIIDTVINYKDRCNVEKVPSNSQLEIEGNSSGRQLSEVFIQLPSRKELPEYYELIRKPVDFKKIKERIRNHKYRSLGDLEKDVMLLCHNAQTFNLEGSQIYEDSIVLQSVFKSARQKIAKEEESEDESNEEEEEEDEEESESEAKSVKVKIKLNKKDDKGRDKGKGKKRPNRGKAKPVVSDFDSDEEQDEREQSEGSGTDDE
UniProt P51532: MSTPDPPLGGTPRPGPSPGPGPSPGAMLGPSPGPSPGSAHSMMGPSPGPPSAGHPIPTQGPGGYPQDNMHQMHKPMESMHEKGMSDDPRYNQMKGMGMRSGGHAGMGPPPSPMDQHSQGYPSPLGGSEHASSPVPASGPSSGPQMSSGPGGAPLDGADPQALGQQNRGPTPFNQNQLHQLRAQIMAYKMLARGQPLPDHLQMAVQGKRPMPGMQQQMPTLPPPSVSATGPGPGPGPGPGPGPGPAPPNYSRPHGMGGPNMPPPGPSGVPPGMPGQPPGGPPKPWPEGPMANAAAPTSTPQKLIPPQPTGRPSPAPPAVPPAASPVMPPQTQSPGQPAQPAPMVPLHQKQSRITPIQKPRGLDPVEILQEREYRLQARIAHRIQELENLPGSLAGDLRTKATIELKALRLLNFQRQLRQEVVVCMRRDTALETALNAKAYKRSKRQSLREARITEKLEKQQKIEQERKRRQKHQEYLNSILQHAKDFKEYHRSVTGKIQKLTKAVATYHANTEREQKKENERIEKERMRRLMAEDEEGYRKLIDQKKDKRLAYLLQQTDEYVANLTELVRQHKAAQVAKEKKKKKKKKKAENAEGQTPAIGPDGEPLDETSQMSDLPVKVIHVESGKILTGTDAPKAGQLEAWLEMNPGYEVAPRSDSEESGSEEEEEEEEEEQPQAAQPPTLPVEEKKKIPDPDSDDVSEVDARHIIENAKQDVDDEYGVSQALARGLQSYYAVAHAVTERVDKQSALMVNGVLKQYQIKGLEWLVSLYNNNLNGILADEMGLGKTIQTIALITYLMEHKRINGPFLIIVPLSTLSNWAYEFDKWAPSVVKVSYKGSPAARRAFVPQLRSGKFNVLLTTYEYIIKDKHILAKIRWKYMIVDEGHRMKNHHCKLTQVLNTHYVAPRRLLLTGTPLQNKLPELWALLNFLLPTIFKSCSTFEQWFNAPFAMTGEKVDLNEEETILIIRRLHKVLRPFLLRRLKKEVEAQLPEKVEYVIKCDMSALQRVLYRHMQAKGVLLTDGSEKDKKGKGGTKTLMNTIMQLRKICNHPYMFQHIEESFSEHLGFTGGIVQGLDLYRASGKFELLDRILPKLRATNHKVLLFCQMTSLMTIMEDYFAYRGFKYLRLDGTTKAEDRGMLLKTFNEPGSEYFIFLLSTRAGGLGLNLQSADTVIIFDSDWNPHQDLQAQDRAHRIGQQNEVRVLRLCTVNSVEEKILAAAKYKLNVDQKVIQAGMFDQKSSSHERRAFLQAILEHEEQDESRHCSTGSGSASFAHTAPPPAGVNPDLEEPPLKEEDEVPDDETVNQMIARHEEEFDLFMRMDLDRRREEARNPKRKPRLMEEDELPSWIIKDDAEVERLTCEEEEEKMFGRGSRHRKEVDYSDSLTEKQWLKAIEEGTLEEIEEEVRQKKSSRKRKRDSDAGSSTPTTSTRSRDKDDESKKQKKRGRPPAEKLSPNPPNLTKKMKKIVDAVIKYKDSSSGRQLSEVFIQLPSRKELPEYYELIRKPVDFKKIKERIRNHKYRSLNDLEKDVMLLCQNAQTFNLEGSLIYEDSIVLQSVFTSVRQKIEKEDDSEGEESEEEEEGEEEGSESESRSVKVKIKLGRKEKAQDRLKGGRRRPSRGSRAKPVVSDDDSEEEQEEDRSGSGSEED
UniProt Q12824: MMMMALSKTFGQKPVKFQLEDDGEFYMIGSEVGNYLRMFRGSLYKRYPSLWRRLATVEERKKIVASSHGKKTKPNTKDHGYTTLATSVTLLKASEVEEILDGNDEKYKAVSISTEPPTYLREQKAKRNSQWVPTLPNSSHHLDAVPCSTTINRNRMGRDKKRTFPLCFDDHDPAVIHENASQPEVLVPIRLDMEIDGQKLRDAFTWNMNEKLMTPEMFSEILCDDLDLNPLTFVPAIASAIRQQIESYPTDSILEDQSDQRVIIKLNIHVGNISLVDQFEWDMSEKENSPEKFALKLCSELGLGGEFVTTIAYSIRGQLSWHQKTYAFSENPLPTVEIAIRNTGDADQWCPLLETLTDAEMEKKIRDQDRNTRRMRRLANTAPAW
UniProt P97496: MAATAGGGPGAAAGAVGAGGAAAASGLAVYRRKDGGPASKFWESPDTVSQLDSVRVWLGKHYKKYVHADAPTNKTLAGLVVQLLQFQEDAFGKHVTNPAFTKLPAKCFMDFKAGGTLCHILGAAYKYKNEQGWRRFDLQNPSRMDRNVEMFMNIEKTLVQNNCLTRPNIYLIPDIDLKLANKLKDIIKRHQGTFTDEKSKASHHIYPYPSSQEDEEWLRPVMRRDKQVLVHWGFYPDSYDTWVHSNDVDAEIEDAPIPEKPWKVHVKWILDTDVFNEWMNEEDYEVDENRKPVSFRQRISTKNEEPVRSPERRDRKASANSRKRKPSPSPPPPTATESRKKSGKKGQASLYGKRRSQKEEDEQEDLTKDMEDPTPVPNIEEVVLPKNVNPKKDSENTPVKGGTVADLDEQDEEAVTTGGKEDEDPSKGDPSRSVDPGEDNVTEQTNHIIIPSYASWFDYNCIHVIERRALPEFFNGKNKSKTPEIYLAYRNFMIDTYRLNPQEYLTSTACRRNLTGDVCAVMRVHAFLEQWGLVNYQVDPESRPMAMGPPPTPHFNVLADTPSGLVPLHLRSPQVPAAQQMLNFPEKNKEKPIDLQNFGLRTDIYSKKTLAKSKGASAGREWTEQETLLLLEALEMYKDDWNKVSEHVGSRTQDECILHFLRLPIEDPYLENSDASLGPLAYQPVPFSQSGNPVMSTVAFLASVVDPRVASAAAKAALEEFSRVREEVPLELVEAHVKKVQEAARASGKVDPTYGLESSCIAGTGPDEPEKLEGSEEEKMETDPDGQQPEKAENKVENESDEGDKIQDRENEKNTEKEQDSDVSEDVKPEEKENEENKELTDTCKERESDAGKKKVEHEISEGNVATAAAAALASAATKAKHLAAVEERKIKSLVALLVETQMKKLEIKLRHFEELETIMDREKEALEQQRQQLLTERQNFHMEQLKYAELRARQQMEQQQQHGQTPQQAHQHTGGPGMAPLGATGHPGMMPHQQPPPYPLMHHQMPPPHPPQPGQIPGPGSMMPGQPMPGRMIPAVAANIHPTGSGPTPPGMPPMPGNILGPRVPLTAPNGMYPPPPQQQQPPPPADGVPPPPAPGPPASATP

Assay [2] concerns the target T1, NCAPH2, the kleisin subunit of condensin II (human (endogenous in HEK-293T)). In words: affinity purification with mass spectrometry; immunoprecipitation with B276 versus rabbit IG from nuclear lysate of formaldehyde-crosslinked HEK 293T cells; RIPA buffer, Benzonase; SAINTexpress; performed twice.
Assay [3] deals with T2, Ncaph2 (mouse embryonic stem cells) (mouse (endogenous in E14 mESC)) (UniProt Q8BSP2).
T2 sequence: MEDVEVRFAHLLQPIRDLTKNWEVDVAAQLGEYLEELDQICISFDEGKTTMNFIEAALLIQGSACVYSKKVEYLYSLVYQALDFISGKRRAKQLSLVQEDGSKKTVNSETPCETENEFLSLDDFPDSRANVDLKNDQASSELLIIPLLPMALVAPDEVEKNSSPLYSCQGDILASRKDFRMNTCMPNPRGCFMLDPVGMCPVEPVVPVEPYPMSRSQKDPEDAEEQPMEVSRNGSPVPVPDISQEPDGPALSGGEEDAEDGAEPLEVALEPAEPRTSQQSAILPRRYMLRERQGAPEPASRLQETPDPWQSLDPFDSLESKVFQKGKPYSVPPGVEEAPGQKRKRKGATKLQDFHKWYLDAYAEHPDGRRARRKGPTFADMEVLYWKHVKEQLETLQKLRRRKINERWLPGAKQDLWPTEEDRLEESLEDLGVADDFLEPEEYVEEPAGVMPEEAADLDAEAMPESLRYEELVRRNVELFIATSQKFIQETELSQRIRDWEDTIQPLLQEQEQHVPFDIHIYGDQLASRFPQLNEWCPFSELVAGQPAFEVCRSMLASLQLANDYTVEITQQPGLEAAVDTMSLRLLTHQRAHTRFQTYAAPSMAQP
In words: affinity purification with mass spectrometry; immunoprecipitation with B276 (Bethyl A302-276A) versus rabbit IgG from E14 mESC whole cell extract, without crosslinking; 1% triton buffer, 5°C for 2 hours; label free quantification, n = 4.

Results are given in words; binding and its absence hold for the method and conditions named. In cells and extracts the contact can be indirect. A yes stands for co-enrichment or nearness to the bait. Other partners may have been found. A no says only that the protein was not detected with the bait.

The text below walks through data of paper PMC7863998.

In the case of ACTL6A (from UniProt O96019 1-429), the binding entry in assay [1] was “no binding”.
In the case of BRD7 (from UniProt Q9NPI1 1-651), the binding entry in assay [1] is on record as “no binding”.
Still for that read-out and setting: then DPF2 (from UniProt Q92785 1-391), with “no binding”; and PBRM1 (from UniProt Q86U86 1-1689), with “no binding”; and SMARCA2 (from UniProt P51531 1-1590), with “no binding”.
With SMARCA4 (from UniProt P51532 1-1647), the binding entry in assay [2] and in assay [1] was “no binding” each time.
Take SMARCB1 (from UniProt Q12824 1-385): the binding entry in assay [1] is “no binding”.
Same read-out and setting: for SMARCC2 (from UniProt Q8TAQ2 1-1214) the value was “no binding”.
On the same count and under the same terms, for SMARCD1 (from UniProt Q96GM5 1-515) the value was “no binding”; for SMARCD2 (from UniProt Q92925 1-531), “no binding”; for SMARCD3 (from UniProt Q6STE5 1-483), “no binding”.
For SMARCE1 (from UniProt Q969G3 1-411), the binding entry in assay [2] and in assay [1] was “no binding” throughout.
For the substance “Smarcc1/Baf155 subunit (from UniProt P97496 1-1104)”, the binding result in assay [3] is recorded as “no binding”.
